Laboratory results as given in patent US20220204638A1, “Combination Therapies Comprising Daratumumab, Bortezomib, Thalidomide and Dexamethasone and Their Uses” (Janssen Biotech, Inc., priority 2019, published 2022).

Test system: multiple myeloma
Assay: Clinical trials pooled, monotherapy and combination treatments (N=2,066)
Settings: human, in vivo

Substance: DARZALEX: IgG1κ human monoclonal antibody against CD38, HC SEQ ID NO: 9 and LC SEQ ID NO: 10
- Median duration of 16 mg/kg infusion, 1st week: approximately 7 hours
- Median duration of 16 mg/kg infusion, 2nd week: ~4 h
- Median duration of 16 mg/kg infusion, subsequent infusions: ~3 h
